Values of other authors as cited in patent publication US10472687B2, “Methods to identify antituberculosis compounds” (priority 2016, dated 2019).
For at least one compound, name, drawing or mass did not settle the structure.

System: Rv0880
Conditions: cited from earlier work

## O=[N+]([O-])c1cn2c(n1)OC[C@@H](OCc1ccc(OC(F)(F)F)cc1)C2 [PA-824, pretomanid]
  effect on Rv0880: known to repress Rv0880
